Out of some 31,000 sequences screened, about 1,400 (4.5%) were called active.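 The calls were made as follows: active = median seed-adjusted z-score above 1 or below -1; inactive = the rest.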 The list shows a part of the results.
Assay: Novel Modifiers of Survival Motor Neuron (SMN) Protein: Gene Identification via Genome-wide siRNA Screen;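 also: luminescence tracks full-length SMN protein made from the SMN2 reporter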
Settings: HEK293T SMN2-luciferase reporter, siRNA knockdown, 72 h; actives lie on both sides
How it was run: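 Genome-wide siRNA screen (10418 genes, 3 siRNAs each, 1 pmol per well) by reverse transfection in HEK293T cells stably carrying an SMN2-luciferase reporter; luminescence after 72 hours, normalized to negative-control siRNA, log10-transformed, MAD-scored.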
For CCAUGUCUCUUUUCGGGAATT against IL1RL2, the median seed-adjusted z-score was inactive: -0.555. In the case of AGAUUACUCAGAGAUUAUATT against PDCD2, the median seed-adjusted z-score is reported as inactive: -0.232. With GGAUAACUUCUCCUUGUCATT against PRM3 the median seed-adjusted z-score was inactive: 0.249. In the case of CCUCAACAAUGGAAGGUUUTT against ACADVL, the median seed-adjusted z-score is reported as inactive: -0.476. In the case of GGUGAGAUGUUAGAUAACATT against STX3, the median seed-adjusted z-score is reported as inactive: 0.686. For GGAAAGCAAACGAAUCCAATT against TCEB3B, the median seed-adjusted z-score was inactive: 0.0434. In the case of GCUCCUCUCUUAGAUCUAATT against PHF7, the median seed-adjusted z-score is reported as inactive: 0.425. With CCACUCAACUUGGCUCACATT against DTNA the median seed-adjusted z-score was inactive: 0. With GCACUUACAGAGUAUAUCATT against TESK2 the median seed-adjusted z-score was inactive: 0. For CAUUCGAUCAGAGAGCAUATT against ATG16L1, the median seed-adjusted z-score was inactive: -0.187. With GUGUCGCUACAGAUUCAAATT against ZSCAN20 the median seed-adjusted z-score was inactive: -0.099. For GGAUUGAAGGUACCAAGGATT against ATP13A1, the median seed-adjusted z-score was inactive: 0.488. In the case of GGUCGAAUCUGGAAUGGGATT against KCNK15, the median seed-adjusted z-score is reported as inactive: -0.218. With GGAUAUCGAUGAGUGCAGATT against NOTCH4 the median seed-adjusted z-score was inactive: -0.384. In the case of GCUUAUUGGUUCUCCGUUATT against ITGA1, the median seed-adjusted z-score is reported as inactive: 0.0281. With CAGUGUCACAGGUAUCCAATT against PBX3 the median seed-adjusted z-score was inactive: 0.847. With GCGAAACCAGGUUCACAGATT against TRPC4AP the median seed-adjusted z-score was inactive: 0.106. With GUGUUGUUGGAAUAACAUATT against USP31 the median seed-adjusted z-score was inactive: -0.755. For GCAUCUCAGCAGUAGGGAATT against IPO5, the median seed-adjusted z-score was inactive: -0.299. For GGGCUAGAUCUGUAUCUUATT against TSC22D3, the median seed-adjusted z-score was inactive: 0.0129. With UCAAUUUGGUUGUUGCGAATT against UGT1A10 the median seed-adjusted z-score was inactive: 0.286. In the case of CGUUUUUCGUCUCCAUCAUTT against A4GALT, the median seed-adjusted z-score is reported as inactive: -0.286. With GCCUGUCAAGGAAAGUACATT against ALDOA the median seed-adjusted z-score was inactive: -0.258. For GACCUAUAGCUACUGGAUATT against IFT88, the median seed-adjusted z-score was inactive: 0.189. For GCAGUGACAUCUACAGGCATT against MEGF9, the median seed-adjusted z-score was inactive: -0.0893. In the case of GGAAAACAAGUGGUCGUUATT against COX7C, the median seed-adjusted z-score is reported as inactive: -0.461. With GGAUGGAAGAUACAUAACATT against PREX2 the median seed-adjusted z-score was inactive: -0.0625. With CCUGUUACAUGUAAUAAGATT against RBM34 the median seed-adjusted z-score was inactive: 0. With GCACCUCGAGGACAGAACATT against AMACR the median seed-adjusted z-score was inactive: -0.591. For CUAUGUUUCUUGACUCGAATT against CENTB2, the median seed-adjusted z-score was inactive: 0. With GGCACUCUCUAUUCAGAAATT against NAPG the median seed-adjusted z-score was inactive: 0.0128. For CCAAGCAAAUAGUAGAAGATT against CYLC1, the median seed-adjusted z-score was inactive: 0.177. In the case of GAGACGAGGAGGAAACUUUTT against DDX27, the median seed-adjusted z-score is reported as inactive: -0.131. For CGGAGUACUUGGAAGCCUATT against CACNB1, the median seed-adjusted z-score was inactive: 0.225. In the case of GAUUGGACCUUGUGAAGGATT against GLUL, the median seed-adjusted z-score is reported as inactive: -0.307. For GGACGGUUUAAGGAACAGATT against SEMA6D, the median seed-adjusted z-score was inactive: 0.0624. For CUCUUGUACCAGUUCCUGATT against SLC25A35, the median seed-adjusted z-score was inactive: -0.762. For CCACUAACGUGAUAAUACUTT against NUP88, the median seed-adjusted z-score was inactive: 0.709. For AGGGAUACCUUUUUCCUCATT against B4GALNT4, the median seed-adjusted z-score was inactive: -0.567. For GCAAUUGUCUACCCAUUUATT against P2RY5, the median seed-adjusted z-score was inactive: 0.0278. For GCAGUGACAUUGUACAGAATT against PDE3A, the median seed-adjusted z-score was inactive: 0.291. For GCCCUAUACAUACAGUUCATT against ZFP112, the median seed-adjusted z-score was inactive: -0.449. For GGGAGUUUCUUGUGCAAGATT against CCBP2, the median seed-adjusted z-score was inactive: -0.0896. For GCCCUGAAAUGCAUCCGCATT against CLDN18, the median seed-adjusted z-score was inactive: 0.000299. With GGUUGACUCAGAUACUACATT against CENPE the median seed-adjusted z-score was inactive: 0.298. In the case of GGGAUACGGCAAGCAUGAATT against DUSP26, the median seed-adjusted z-score is reported as inactive: 0.204. In the case of AGGCUUUGCUUGAAGUCAATT against MSLN, the median seed-adjusted z-score is reported as inactive: -0.344. For CUAUGGACCAGUAAUCUGATT against COX7A2, the median seed-adjusted z-score was inactive: -0.0808. For GCACUCCACUAUGAUCGGATT against GJD2, the median seed-adjusted z-score was inactive: -0.229. For CACCCGUGGUUGUUACACUTT against CDK4, the median seed-adjusted z-score was inactive: 0.346. For CUGUGGGAACUAUUAAAAATT against PCGF5, the median seed-adjusted z-score was inactive: 0.25. With GAGUAUCUGUUGUCCAGGATT against PDIK1L the median seed-adjusted z-score was inactive: 0.0682. With CUCUGUUGAAGGUAGCAAATT against TIGD4 the median seed-adjusted z-score was inactive: -0.553. In the case of GGAAGUAUGUUCUACAAGATT against SAMD7, the median seed-adjusted z-score is reported as inactive: 0.161. For CAUCAUCAAUGGAAGCACUTT against PLXNA3, the median seed-adjusted z-score was inactive: 0.255. For GGCUACUACUGCAACUGUATT against ITGB3, the median seed-adjusted z-score was inactive: 0.456. With GAGACAACCUGCAACGACATT against GDI1 the median seed-adjusted z-score was inactive: 0.198. In the case of CCACCUCGGAUGGAGGUUATT against INHA, the median seed-adjusted z-score is reported as inactive: 0.231. With CGAAGUUCAAGUAUAGGUATT against RAG1 the median seed-adjusted z-score was active: -1.35. With GGAGUGGUCUGAUAGAACUTT against PLA2R1 the median seed-adjusted z-score was inactive: -0.0304. In the case of GUGAGAAGAUGAUCACGAATT against PHYH, the median seed-adjusted z-score is reported as inactive: 0.208. In the case of ACAGUCAGCUGUUAGAGAATT against PFDN1, the median seed-adjusted z-score is reported as inactive: 0.212. For CCGGUGCUCUACGUCUUCATT against LTB4R2, the median seed-adjusted z-score was inactive: -0.26. For CGGUUGAACCCUACACGAATT against STAT1, the median seed-adjusted z-score was inactive: -0.0526. With GGACUUGAGAGAUCUCUUUTT against DAB1 the median seed-adjusted z-score was inactive: 0.307. For AGAGAAUUUAUAUCGAAGATT against ZNF492, the median seed-adjusted z-score was inactive: 0.0668. With CCUAGUGUUUGUGAAAUAATT against ATP6V0B the median seed-adjusted z-score was inactive: 0. For GCAUCCCACAUUAAGUCAATT against B3GALNT2, the median seed-adjusted z-score was inactive: -0.227. For GGUCCUAAAAGAUAUCUGUTT against TGM7, the median seed-adjusted z-score was inactive: 0.244. For GCUCAGUUUAAUACACCUATT against PDLIM3, the median seed-adjusted z-score was inactive: -0.297. In the case of CUUCUACAGUGGUCACCUATT against VPS29, the median seed-adjusted z-score is reported as inactive: -0.408. For GCACCUAUCUGGACAUGAATT against VPS18, the median seed-adjusted z-score was inactive: 0.181. For GACUCGUCAAGGACAGAUATT against LPHN3, the median seed-adjusted z-score was inactive: -0.0576. With GCACGGCUUUUGUUCAGAUTT against TERT the median seed-adjusted z-score was inactive: -0.698. In the case of GAUUCACAACCAUUCCACATT against GJC1, the median seed-adjusted z-score is reported as inactive: -0.0291. For CGGUAUUACUCGAACGUAUTT against TPCN2, the median seed-adjusted z-score was inactive: -0.341. With CAGGAACCCUUGAAGGUAATT against MAP1A the median seed-adjusted z-score was inactive: -0.17. In the case of CUCAUAUACCUAUACCUCATT against AMIGO1, the median seed-adjusted z-score is reported as inactive: 0.175. In the case of GAACUGGGCGAGUAUUACATT against SUPT5H, the median seed-adjusted z-score is reported as active: -4.02. With GAAAAGAAGCUCAAGUGUATT against ZNF410 the median seed-adjusted z-score was inactive: -0.135. With GCCUCACCCUUAGCCUUUATT against TTLL10 the median seed-adjusted z-score was inactive: 0.211. With CAUUCAACCAGUUAUUACATT against N6AMT1 the median seed-adjusted z-score was inactive: 0.166. With GCCGAGACUGUAGCAGAGATT against HES4 the median seed-adjusted z-score was inactive: 0.705. For GAUCGACUGCUAGAGAGUATT against DCLK1, the median seed-adjusted z-score was inactive: 0.193. In the case of CCAUCGACGGUGUUACCUATT against ITIH3, the median seed-adjusted z-score is reported as inactive: 0. For GCUUCCACGUGGUCUAUGUTT against TBX1, the median seed-adjusted z-score was inactive: -0.744. For AGAUCGACGUGAUCAAGCATT against GNAS, the median seed-adjusted z-score was inactive: -0.531. In the case of CCACGAUCGUUCACAAGGATT against KCTD4, the median seed-adjusted z-score is reported as inactive: 0.649. For GCACAUAGCUAUCCGCCCATT against GUCY2D, the median seed-adjusted z-score was inactive: 0. With GGUUCUGCUUUAUUACCUUTT against HNRNPD the median seed-adjusted z-score was inactive: 0.504. In the case of GGAAGACUCAAAUACAGUATT against TRIM5, the median seed-adjusted z-score is reported as inactive: 0.0758. With GAUGUGCAAUUCUUAAAGATT against NAAA the median seed-adjusted z-score was inactive: -0.137. In the case of UCAUCGACAGCAAAAAUUATT against SUSD2, the median seed-adjusted z-score is reported as inactive: 0.422. In the case of GAUUCAUACAUACCUCGAATT against MYSM1, the median seed-adjusted z-score is reported as inactive: -0.116. For GCCUGUGACUCAUACUGGATT against ELF5, the median seed-adjusted z-score was inactive: -0.45. In the case of GGUUAUAAGCGGGUUAACATT against LTBP1, the median seed-adjusted z-score is reported as inactive: 0.143. In the case of UGCUAUAGCUUGCUAGUAATT against CD28, the median seed-adjusted z-score is reported as inactive: -0.993. With GGUGGAGACAUUUACAUCUTT against CREB3L1 the median seed-adjusted z-score was inactive: 0.708. In the case of GCGCUUGGAGCAUCCCUUUTT against NME3, the median seed-adjusted z-score is reported as inactive: -0.0125. With CCAUGCUCCUGCAACAUUATT against AHSA1 the median seed-adjusted z-score was inactive: 0.489. With GAUGUUCCCUGAUAGCAAATT against SPRR2B the median seed-adjusted z-score was inactive: 0.388. In the case of GCAUAGUGGGUGACUAUCATT against GOLGB1, the median seed-adjusted z-score is reported as inactive: 0.0851. For GCUAAAGUCCGGUUACAGATT against UCP2, the median seed-adjusted z-score was inactive: -0.111. For GUAUCGUCGAGAAGCCUAUTT against NT5C2, the median seed-adjusted z-score was inactive: -0.687. For GCACCUACACUGACGAAGATT against FARSB, the median seed-adjusted z-score was inactive: 0.317. With GCUGUACUCUACCUAUUUATT against SLC5A11 the median seed-adjusted z-score was inactive: -0.219. For CCAUAACUGCAGUUUUGAUTT against DMBT1, the median seed-adjusted z-score was inactive: -0.131.
